Reference: PMC12279241
These are yes or no findings as the source states them, for the method shown. In cells and extracts the contact can be indirect. These calls come from enrichment with a bait or labelling near it, and not all partners need be listed.

Target: T1, TMCO3 (IP experiments whose cells are not stated) (UniProt Q6UWJ1)
T1 sequence: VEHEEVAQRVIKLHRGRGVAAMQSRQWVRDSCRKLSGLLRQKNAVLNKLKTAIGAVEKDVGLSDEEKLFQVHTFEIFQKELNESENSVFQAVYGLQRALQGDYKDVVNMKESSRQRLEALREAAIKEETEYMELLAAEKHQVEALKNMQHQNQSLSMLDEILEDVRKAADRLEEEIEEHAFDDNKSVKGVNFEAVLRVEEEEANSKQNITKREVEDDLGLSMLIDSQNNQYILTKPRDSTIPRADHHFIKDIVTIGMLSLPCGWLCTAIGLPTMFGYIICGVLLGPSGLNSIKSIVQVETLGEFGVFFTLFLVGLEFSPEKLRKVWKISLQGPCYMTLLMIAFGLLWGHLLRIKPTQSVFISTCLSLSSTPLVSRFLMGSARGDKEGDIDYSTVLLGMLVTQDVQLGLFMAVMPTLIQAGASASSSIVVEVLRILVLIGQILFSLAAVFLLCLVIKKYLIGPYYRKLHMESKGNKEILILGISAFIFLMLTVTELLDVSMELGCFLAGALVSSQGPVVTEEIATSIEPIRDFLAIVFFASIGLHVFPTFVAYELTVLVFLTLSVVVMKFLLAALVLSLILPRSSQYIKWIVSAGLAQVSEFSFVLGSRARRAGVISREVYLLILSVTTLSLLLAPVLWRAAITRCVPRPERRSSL
Assay: affinity purification with mass spectrometry; immunoprecipitation (IP) of TMCO3 followed by MS; cells not given

- binding: binds
Substance: AKT (IP experiments whose cells are not stated)
